This assay concerns the target cynomolgus IL-33 (cynomolgus monkey). In words: MSD-SET (similar procedure), 25 C.

Consider 3 molecules from patent US20260167710A1.

Results are given in words; binding and its absence hold for the method and conditions named. Some binding calls cover weakened binding; strength is not graded here.

B1: 22A06-429 (antibody, V domains shown)
VH: QVQLVQSGAEVKKPGASVKVSCKASGYTFISYGMHWVRQAPGQGLEWMGEINPHGGSTSYAQKFQGRVTMTRDTSTSTVYMELSSLRSEDTAVYYCARPSAAYSHYLGIDMWGRGTLVTVSS
VL: DIQMTQSPSSVSASVGDRVTITCRASQGISSWLAWYQQKPGKAPKLLIYAASRLQSGVPSRFSGSGSGTDFTLTISSLQPEDFATYYCQQANVFPLTFGGGTKVEIKR
In the case of B1, the binding entry is “binds”.

B2: 22A06-502 (antibody, V domains shown)
VH: QVQLVQSGAEVKKPGASVKVSCKASGYTFISYGMHWVRQAPGQGLEWMGEINPHGGSTSYAQKFQGRVTMTRDTSTSTVYMELSSLRSEDTAVYYCARPSAAYSHYLGIDLWGRGTLVTVSS
VL: DIQMTQSPSSVSASVGDRVTITCRTSQGISSWLSWYQQKPGKAPKLLIYAASSLQSGVPSRFSGSGSGTDFTLTISSLQPEDFATYYCQQAHVLPLTFGGGTKVEIKR
For B2, the binding result was “binds”.

B3: 22A06-481 (antibody, V domains shown)
VH: QVQLVQSGAEVKKPGASVKVSCKASGYTFISYGMHWVRQAPGQGLEWMGEINPHGGSTSYAQKFQGRVTMTRDTSTSTVYMELSSLRSEDTAVYYCARPSAAYSHYLGLDIWGRGTLVTVSS
VL: DIQMTQSPSSVSASVGDRVTITCRASQGISPWLAWYQQKPGKAPKLLIYAGSSLQSGVPSRFSGSGSGTDFTLTISSLQPEDFATYYCQQANVFPLTFGGGTKVEIKR
With B3, the binding entry is listed as “binds”.
